Data source: PubChem BioAssay AID1508597 (Cure First, 2020)
Aim: 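Survival screen with siRNA in ovarian cancer cells derived from patients, with or without rucaparib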 (primary screen). Cells: human ovarian carcinoma lines grown from tumours: OCI-P5x (papillary serous) and OCI-C5x (clear cell). Knock-down reagent: siRNA pool against human genes, 1.25 pmol siRNA per well. Time to read-out: 72 h or 96 h, depending on the cell culture. Treatment: rucaparib 20 µM (about IC30) or vehicle, present until read-out. Rucaparib or vehicle: Rucaparib. Cell line: OCI-P5x (serous). Measurement: 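Luminescent ATP-based viability assay read 72 or 96 h after transfection, depending on culture, given as normalised percent viability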. Scale: viability, normalised: higher = more viable cells remaining. Rule for the call: 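Active when normalised viability falls below 80 percent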. Calls: active = viability under 80%; inactive = viability 80% or more.
This is a random part of the about 2,100 reagents, in one setting of the screen. 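Calls flag viability under 80% in either arm, not effects specific to rucaparib; the reference for percent is not stated.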 A number with no mark means an inactive call. Not stated in the record: the 100% reference.

The opening 4 entries as a preview:
gene	technical replicate	viability, normalised (%)
MORC3	1	53.9 (active)
MORC3	2	57.9 (active)
MORC3	3	61.8 (active)
EIF2AK1	1	36.6 (active)

Main list, from the first entry:
gene	technical replicate	viability, normalised (%)
MORC3	1	53.9 (active)
MORC3	2	57.9 (active)
MORC3	3	61.8 (active)
EIF2AK1	1	36.6 (active)
EIF2AK1	2	61.6 (active)
EIF2AK1	3	77.6 (active)
IFI6	1	36.7 (active)
IFI6	2	42 (active)
IFI6	3	45 (active)
RBL2	1	53.6 (active)
RBL2	2	71 (active)
RBL2	3	62.1 (active)
ARL8A	1	70.2 (active)
ARL8A	2	70.3 (active)
ARL8A	3	84.5
TCF19	1	45.6 (active)
TCF19	2	55.4 (active)
TCF19	3	61.5 (active)
XPC	1	86.6
XPC	2	90.5
XPC	3	66.5 (active)
GTF2H5	1	77.8 (active)
GTF2H5	2	110
GTF2H5	3	70.5 (active)
PGK2	1	90.9
PGK2	2	99.3
PGK2	3	111
CHD1	1	83.6
CHD1	2	65 (active)
CHD1	3	72.4 (active)
NCOA1	1	42.9 (active)
NCOA1	2	28.2 (active)
NCOA1	3	33.6 (active)
DLG5	1	66.1 (active)
DLG5	2	69.8 (active)
DLG5	3	63.8 (active)
GRK5	1	117
GRK5	2	129
GRK5	3	122
MED22	1	58.2 (active)
MED22	2	56.8 (active)
MED22	3	55.5 (active)
PAK2	1	80 (active)
PAK2	2	69.6 (active)
PAK2	3	66.8 (active)
MAP3K2	1	85.4
MAP3K2	2	101
MAP3K2	3	98
HIF1A	1	55.3 (active)
HIF1A	2	53.1 (active)
HIF1A	3	47.7 (active)
UBR2	1	76.9 (active)
UBR2	2	94.9
UBR2	3	89
NLGN1	1	33.4 (active)
NLGN1	2	27.1 (active)
NLGN1	3	25.2 (active)
